In the supplement of paper PMC5407854, “Inhibitor of ppGalNAc-T3-mediated O-glycosylation blocks cancer cell invasiveness and lowers FGF23 levels” (eLife, 2017):
The other results are listed elsewhere or left out. Most entries show no effect beyond the scatter of the controls.

What follows are molecules tested on ppGalNAc-T3 sensor (assay: T3 sensor activation Q score (MG/GFP ratio z-score vs DMSO controls) (SD units); higher = more sensor activation (inhibition of ppGalNAc-T3 glycosylation)). Conditions: HEK293 sensor cells; 10 µM; 6 h.
Method: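 Cells were treated with compound at 10 uM for 6 h, then MG/GFP ratio was read by flow cytometry (10,000 cells per well, duplicate wells). Q = (R - R_neg)/SD_neg relative to DMSO vehicle controls; the signal rises when the glycosyltransferase is inhibited.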

SMILES | T3 sensor activation Q score
CCOc1ccc(N=C(c2cccc([N+](=O)[O-])c2)N2CCOCC2)cc1 | 0.065
O=C1C(Nc2ccc(F)c(F)c2)=C(N2CCOCC2)C(=O)c2ccccc21 | -0.63
COc1cccc(NC2=C(N(C)C)C(=O)c3ccccc3C2=O)c1 | -0.815
CCOc1ccc(NC(=O)c2cccs2)cc1 | -0.66
CCCn1ncc(OC)c(Cl)c1=O | -0.49
O=C(O)c1cc(S(=O)(=O)N2CCCCC2)ccc1Cl | 0.61
CC(C)(C)NS(=O)(=O)c1ccccc1 | -0.605
COc1cc(S(=O)(=O)N2CCOCC2)c(OC)cc1Cl | -0.445
CCN(CCN(C)C)Cc1ccc([N+](=O)[O-])cc1 | 0.175
OC(C#Cc1ccccc1)c1cccs1 (stereo not given) | 0.045
Cc1cc(C)c2c(N)c(C(=O)c3ccc(F)cc3)sc2n1 | -0.33
CN(Cc1ccccc1)Cc1ccccc1 | 2.65
COc1ccc(CN2CCC(O)CC2)c(OC)c1 | 1.12
COc1ccccc1NC(=O)c1cccs1 | -0.65
Nc1ccc(Sc2nc3ccccc3s2)c(Cl)c1 | -0.18
COc1ccc2c(Cl)c(C(=O)N3CCCCC3)sc2c1 | 0.455
COc1ccc(CN2CCN(c3cccc(C)c3C)CC2)c(OC)c1 | 0.185
Cc1ccc(NS(C)(=O)=O)c(C)c1 | -0.04
O=C(NC1CCCCCCC1)c1ccc(Br)o1 | 0.05
CC(C)CS(=O)(=O)c1cccs1 | -0.05

Given with tabs: part of the list above
SMILES	T3 sensor activation Q score
COc1ccc2c(Cl)c(C(=O)N3CCCCC3)sc2c1	0.455
COc1ccc(CN2CCN(c3cccc(C)c3C)CC2)c(OC)c1	0.185

Next part:

SMILES | T3 sensor activation Q score
COc1cc(C(=O)N2CCN(C(=O)c3ccco3)CC2)cc(OC)c1OC | -0.67
CCc1nc(NN)c2c3c(sc2n1)CCC3 | 1.15
CNC(=O)C(=O)Nc1c(C)cccc1C | 0.455
COc1ccc(Nc2cc(-n3cccn3)ncn2)cc1 | 0.08
CCCOC(=O)Nc1nnc(CCC)s1 | -0.345
O=C(O)c1ccccc1Sc1ccccc1C(=O)O | -0.05
Cc1ccccc1C(=O)N(Cc1ccccc1)C(C)C | -0.155
O=C(NCCc1ccccc1)c1ccc(Cl)c(Cl)c1 | 0.465
COc1ccc(C2=NCCc3cc(OC)c(OC)cc32)cc1 | 0.1
c1ccc2c(c1)nc(N1CCCC1)n2CCN1CCCCC1 | -0.635
COc1ccc(OCCOc2ccc(C)cc2OC)cc1 | -0.985
CCCCNc1ccc(C(=O)O)cc1 | 0.325
Cc1ccc(NC(=O)CCC(=O)O)cc1F | -0.025
NC(=O)COc1cccc2cccnc12 | 0.145
Cc1ccc(NC(=O)c2ccc(C(C)(C)C)cc2)cc1 | -0.18
Cc1ccc(Nc2cc(-n3cccn3)ncn2)cc1 | -0.265
CCc1ccc(CN2CCN(c3ccccn3)CC2)cc1 | -1.07
NC(=O)COc1ccccc1O | -0.7
c1ccc2c(c1)-c1ccccc1C2N1CCNCC1 | -0.685
CC1CCCC(NCCN2CCOCC2)C1 (stereo not given) | 1.59
